From PubChem BioAssay AID493014 (National Center for Advancing Translational Sciences (NCATS), 2011)
The whole screen tested about 340,000 compounds, of which about 170 (0.05%) were called active. Inconclusive results, whose numbers are uncertain, are shown with a selection of clear calls. Calls come from the whole dose curve; as a rule, active = well fitted inhibition curve with a large enough effect in the signal ratio, with a control signal flat (not every such curve was filed as active); inconclusive = small, poorly fitted or top-dose-only effect, or effect the other way, or a change in a side signal; inactive = flat fitted curve, though single readings scatter; the % refers to the signal ratio. A potency beside an inconclusive call is a rough fit, not a confirmed value.

experiment: qHTS Assay to Find Inhibitors of Chronic Active B-Cell Receptor Signaling; details: ABC-DLBCL IkBa-CBG/CBR reporter, luminescence ratio (green luciferase fused to IkBa over red control in TMD8 lymphoma cells), 4 h; activity change, negative = inhibition: at 46.1 µM (top of the series) unless noted;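 for activity change, negative = inhibition: plate controls were basal doxycycline-induced cells for no effect and cells given 10 µM MG132 for full effect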
In short: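 Compounds up to 46 uM were incubated four hours with TMD8 cells whose green CBG68 luciferase is fused to IkappaBalpha; red CBR luminescence normalised the signal, and concentration-effect curves were fitted to fusion, red and ratio data.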
Potency is the fitted concentration of half-maximal effect.

Compound	activity change, negative = inhibition	Potency
COc1ccccc1C(=O)NCCC(=O)Nc1cccc(C)n1	inconclusive: 4.14%	–
Cc1ccc2[nH]c(=O)c(CN(Cc3cccs3)C(=S)NCc3ccco3)cc2c1	inconclusive: 17.9%	–
COCCNC(=O)CSc1nc2cc3c(cc2c(=O)n1CCCC(=O)NCCc1ccc(OC)c(OC)c1)OCO3	inconclusive: 2.48%	–
O=C(COc1ccccc1[N+](=O)[O-])N(Cc1ccco1)C1CCS(=O)(=O)C1 (stereo not given)	–	inconclusive: 15.8 µM [falling, partial curve]
NC(=O)c1ccsc1NC(=O)c1ccc(S(=O)(=O)N2CCCC2)cc1	inactive: -0.422%	–
CC(=O)Nc1ccc(N=Nc2ccccc2)cc1	inconclusive: 0.347%	–
COc1cccc(CNC(=O)C2CCC(=O)N(C3CC3)C2)c1OC (stereo not given)	inactive: 8.23%	–
Cc1cc(CNC(=O)c2ccc3oc(C(C)C)nc3c2)nn1C	inconclusive: 10.9%	–
CC(C)[C@H](NC(=O)c1ccccc1)C(=O)OCc1nc2scc(-c3ccccc3)c2c(=O)[nH]1	inconclusive: -16%	–
O=C(c1cc2nc(-c3ccco3)cc(C(F)(F)F)n2n1)N1CCc2ccccc2C1	inactive: 9.43%	–
COC(=O)c1cc(C(=O)Nc2nc3ccccc3[nH]2)cc([N+](=O)[O-])c1	inconclusive: -14.9%	–
CCCCCNc1nc(-c2ccccc2)cs1	–	inconclusive: 23.1 µM [falling, partial curve]
Cc1ccc(C(=O)Oc2ccc(C(=O)COC(=O)C3CC(=O)N(Cc4ccco4)C3)cc2)cc1 (stereo not given)	inconclusive: 13.5%	–
COc1cc(OC)cc(C(=O)NC(C(=O)N2CCc3ccccc3C2)C(C)C)c1 (stereo not given)	–	inconclusive: 22.4 µM [falling, partial curve, poor fit]
CS(=O)(=O)N1N=C(c2ccc(Br)cc2)CC1c1cccs1 (stereo not given)	–	inconclusive: 6.51 µM [rising, partial curve]
Cc1ccc(SC(=O)c2c(C)noc2-c2cc(C)on2)cc1	inconclusive: 15.1%	–
Cc1ccccc1Nc1c([N+](=O)[O-])ccc2nonc12	inconclusive: -0.0743%	–
C=CCn1c(SCC(=O)Nc2cccc(OC)c2)nnc1-c1cccnc1	–	inconclusive: 7.31 µM [falling, partial curve, poor fit]
Cc1cccc(/C=N/NC(=O)c2ccc(Br)cc2)c1	inconclusive: -0.538%	–
Cc1ccc(-c2nnc(Cc3ccc([N+](=O)[O-])cc3)o2)cc1	–	inconclusive: 2.82 µM [falling, partial curve, poor fit]
O=C(Nc1cccc(-c2nc3cccnc3s2)c1)C1c2ccccc2Oc2ccccc21	inconclusive: 0.427%	–
Cc1nc(CNS(=O)(=O)c2cc(C)c(C)cc2C)cs1	inconclusive: -7.48%	–
O=C(NCc1ccc2c(c1)OCO2)c1cc2ncc(Br)cn2n1	inconclusive: 7.21%	–
COc1ccc(NCc2n[nH]c(=O)c3ccccc23)cc1	inconclusive: 1.91%	–
Cc1[nH]c(=O)c(C#N)c(C)c1Cc1ccc(Cl)cc1Cl	–	inconclusive: 0.501 µM [falling, partial curve, poor fit]
CCOc1ccc(CCNC(=O)CCCN2C(=O)c3ccccc3C2=O)cc1OCC	inconclusive: 17%	–
NC(=S)Nc1ncc(CCN2CCOCC2)c(-c2ccc(F)cc2)n1	inconclusive: 13.7%	–

As a short view, two of the compounds above:
Compound	activity change, negative = inhibition	Potency
Cc1cccc(/C=N/NC(=O)c2ccc(Br)cc2)c1	inconclusive: -0.538%	–
Cc1ccc(-c2nnc(Cc3ccc([N+](=O)[O-])cc3)o2)cc1	–	inconclusive: 2.82 µM [falling, partial curve, poor fit]

Carrying on.

Compound	activity change, negative = inhibition	Potency
COc1ccc(CCNc2ncnc3c2nnn3C)cc1OC	inconclusive: -19.2%	–
O=C(Nc1nccc(-c2cccs2)n1)c1ccccc1Cl	–	inconclusive: 10 µM [falling, partial curve, poor fit]
COc1ccc(CN(C)CC2CCCN(CCc3ccccc3C)C2)cc1O (stereo not given)	inactive: -4.23%	–
O=C(Nc1cc(SCCO)cc([N+](=O)[O-])c1)c1ccc(Br)o1	inconclusive: -5.53%	–
O=C(NCC(O)c1ccc([N+](=O)[O-])cc1)c1cccc(S(=O)(=O)N2CCCC2)c1 (stereo not given)	inconclusive: 8.58%	–
Cc1ccc(N2C(=O)/C(=C/c3cccnc3)SC2=S)cc1	inconclusive: 1.15%	–
O=C(c1cc(-c2ccccc2Cl)on1)N1CCCC1	–	inconclusive: 22.4 µM [falling, partial curve, poor fit]
COc1ccc(C(=O)CC(=O)C(=O)Nc2cccc(C(C)=O)c2)cc1	inactive: -1.26%	–
O=C(Nc1ccccc1Oc1ccccc1)c1cccs1	inconclusive: -2.17%	–
Cc1cc(C)n(CCO)c(=O)n1	inconclusive: -21.9%	–
Cn1cnc2c1c(=O)n(Cc1cccc(Br)c1)c(=O)n2C	inconclusive: -8.94%	–
COc1cccc(OCCNc2cc(N3CCOCC3)ccc2[N+](=O)[O-])c1	inconclusive: -14.6%	–
CC(C)Oc1snc(Cl)c1C(N)=O	–	inconclusive: 0.731 µM [rising, full curve]
COc1ccc(C)cc1NC(=O)CSc1nnc(-c2cc(C)[nH]n2)n1N	inactive: 0.509%	–
CCOC(=O)c1c(-c2ccccc2)cn2c(C)cc(C)nc12	inconclusive: -25.4%	–
Cc1cccc(C2=NNC(=O)C(c3ccc(Cl)cc3)C2)c1 (stereo not given)	inconclusive: 2.39%	–
COc1ccc(OCC(=O)Nc2cc(-c3nn(C)c(=O)c4ccccc34)ccc2N2CCOCC2)cc1	inconclusive: -11%	–
COc1ccc(NC(=O)c2cc(Br)ccc2Cl)c(OC)c1	inconclusive: 11.7%	–
COc1ccc2[nH]c(CN3CCN(CC(C)C)C(CCO)C3)c(C)c2c1 (stereo not given)	–	inconclusive: 20 µM [falling, partial curve, poor fit]
Brc1ccc(-c2nnc3sc(CN4CCC5(CC4)OCCO5)cn23)cc1	inconclusive: -0.845%	–
CC1CCCN(C(=O)C2(NC(=O)Nc3cccc(F)c3)CCCCC2)C1 (stereo not given)	inconclusive: -1.14%	–
O=C(NCCO)c1cccc(Nc2nc(-c3ccccc3)c3cc(Cl)ccc3n2)c1	–	inconclusive: 20 µM [falling, single point]
COC(=O)c1ccc(COC(=O)CNC(=O)c2ccco2)cc1	inconclusive: 17%	–
C=CCn1c(SCC(=O)NCc2ccco2)nnc1-c1ccc2ccccc2n1	inactive: 11.8%	–
O=C1SC(SC(=Nc2ccccc2)Nc2ccccc2)C(=O)N1c1ccccc1 (stereo not given)	–	inconclusive: 5.8 µM [falling, single point]
CC(OC(=O)c1ccco1)C(=O)Nc1ccc(Cl)cn1 (stereo not given)	inconclusive: -0.416%	–
Cc1[nH]c2ccc(-c3nnc(SCC(=O)NCc4ccco4)n3Cc3ccccc3)cc2c1C	–	inconclusive: 29.1 µM [falling, single point]

Compound	activity change, negative = inhibition	Potency
O=[N+]([O-])c1ccc(N/N=C2\CC3CC=CC23)cc1 (stereo not given)	–	inconclusive: 25.1 µM [falling, single point]
c1ccc(-c2nc3ccccc3[nH]2)nc1	inconclusive: -20.6%	–
COc1cc(/C(C#N)=C/c2ccccc2)c([N+](=O)[O-])cc1OC	inconclusive: -21.1%	–
Cc1cccc(N2CCN(C(=O)c3c(-c4ccccc4)noc3C)CC2)c1C	inactive: -19.9%	–
O=C(Nc1ccc(Br)c(Cl)c1)c1ccco1	inconclusive: -3.03%	–
C/C(Cn1nnc2ccccc21)=N\NC(=O)c1cccc(Br)c1	–	inconclusive: 16.4 µM [falling, partial curve]
CCN1C(=NCc2ccco2)N[C@@H](c2cccc(F)c2)C(C(=O)OC)=C1C	inconclusive: 6.25%	–
COc1cc(C2C3=C(CC(C)(C)CC3=O)OC(N)=C2[N+](=O)[O-])ccc1O (stereo not given)	–	inconclusive: 29.1 µM [falling, single point]
CCN(CC(=O)NC1CCCC1)S(=O)(=O)c1ccc(C)cc1	inconclusive: -0.167%	–
CC(C)(C)OC(=O)C[C@H]1C/C=C\C[C@H](CC(=O)NCCO)C(=O)N[C@@H](c2ccccc2)COC1=O	inactive: 0.559%	–
Cc1noc(C)c1COc1ccccc1C(=O)NNC(=O)c1ccccc1F	inactive: -0.437%	–
O=C(CCNC(=O)c1ccc([N+](=O)[O-])cc1)Oc1ccc(F)c(F)c1	–	inconclusive: 29.1 µM [falling, partial curve, poor fit]
C=CCn1c(SCc2nc3ccccc3c(=O)[nH]2)nc2scc(C3CC3)c2c1=O	inactive: -1.21%	–
CCOc1ccc(S(=O)(=O)N(CC)CC(=O)NCc2ccccn2)cc1C	inactive: 2.35%	–
CSc1cccc(NC(=O)COc2ccccc2)c1	inconclusive: -0.911%	–
O=[N+]([O-])c1cc([N+](=O)[O-])c(Oc2ccc(F)cc2F)cc1NN1CCCCC1	–	inconclusive: 3.55 µM [falling, partial curve, poor fit]
COc1ccc(NC(=O)COc2ccccc2C)cc1S(=O)(=O)N1CCCCC1	–	inconclusive: 10.3 µM [falling, partial curve, poor fit]
Cc1cc(=O)[nH]c(SCC(=O)N2CCc3ccccc3C2)n1	inconclusive: -19.7%	–
Cc1cc(C)nc(SCCn2c(N3CCCCC3)nc3c2c(=O)n(C)c(=O)n3C)n1	inactive: -7.52%	–
CC1(c2ccccc2)CC(C)(C)N(C(N)=O)c2ccccc21 (stereo not given)	inconclusive: 8.58%	–
CC1(c2ccccc2)CC(C)(C)N(C(=O)C2CCCO2)c2ccccc21 (stereo not given)	inconclusive: 23.5%	–
CC12/C(=N/O)C3C4CC5C3/C(=N/O)C1C5C42 (stereo not given)	inconclusive: 6.77%	–
Cc1ccc(O)c(NC(=S)NC(=O)/C=C/c2ccco2)c1	–	inconclusive: 35.5 µM [falling, single point]
COc1ccc2nc(SCC(=O)NCCc3ccccc3)[nH]c2c1	inconclusive: 3.08%	–
CCOc1ncccc1C(=O)OCC(=O)Nc1cc(S(=O)(=O)N2CCOCC2)ccc1Cl	–	inconclusive: 20.6 µM [falling, single point]
O=C(N/N=C/c1ccco1)c1cc(-c2ccc(Cl)s2)[nH]n1	inactive: 3.28%	–
